This is an account of results in PubChem BioAssay AID328 (DTP/NCI, 2004).

For this assay, the system named is BDF1 mice, P388 leukemia ip, median survival T/C. The assay can be described thus: NCI In Vivo Anticancer Drug Screen. Data for tumor model P388 Leukemia (intraperitoneal) in B6D2F1 (BDF1) mice. The following applies: T/C endpoint: median survival time, higher T/C = longer survival. Summed up: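 Transplantable tumour in mice; compound vs vehicle dosing; survival scored; ratio of treated to control reported.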

[1] abbreviates: dose: 200.0 mg/kg/injection, schedule: Q01DX009 (ip), vehicle: Klucel (hydroxypropylcellulose) (HPC).
Where [2] appears, read: dose: 25.0 mg/kg/injection, schedule: Q01DX009 (ip), vehicle: saline with Tween-80.
Where [3] appears, read: dose: 200.0 mg/kg/injection, schedule: Q01DX009 (ip), vehicle: saline with Tween-80.
Setting [4] is: dose: 400.0 mg/kg/injection, schedule: Q01DX009 (ip), vehicle: saline with Tween-80.
[5] abbreviates: dose: 50.0 mg/kg/injection, schedule: Q01DX009 (ip), vehicle: saline with Tween-80.

The list shows only some results of the screen, not a fair sample: it gathers tests that were run many times, whatever their T/C, doses with no T/C, and many T/C values between a quarter and a half above the control. Further doses and runs are listed elsewhere. T/C gives the treated animals as a percentage of the vehicle group. Some doses have a count of surviving animals in place of a T/C: the source files T/C as zero there, which appears to mark a toxic dose or a test without result, not a measured value. Some doses without a T/C left all or most animals alive at the check, yet need not have been tolerated: the source hardly ever lists a survival T/C far under the control, and the zero likely stands for such cases as well. Counts of survivors are from the toxicity check (mostly the fifth day) where no day follows; animals may have died later. Schedules are NCI's codes, read here as Q, the interval in days (D) or hours (H), X, the number of doses. Where survival is the endpoint, the PubChem record calls one and a half times the control and up active, and a quarter to a half above the control has no call in these data; cut-offs in other NCI protocols can differ. Some T/C values are followed by the survivors on the day toxicity was checked, most often the fifth; without a count, all were alive then.

On to `O=C(Nc1ccc([N+](=O)[O-])cc1)OCC#CC#CCOC(=O)Nc1ccc([N+](=O)[O-])cc1`, for which the survivor count under setting [1] is recorded as 3 of 6.

Consider `C[N+]1(C)CCCC1`, for which, under “dose: 25.0 mg/kg/injection, schedule: Q04DX003 (ip), vehicle: saline”, the survivor count was 0 of 6.

As to `Clc1nc2nc3n(c2nc1Cl)CCC3(Br)Br`, the survivor count is recorded as 5 of 6 (dose: 25.0 mg/kg/injection, schedule: Q01DX009 (ip), vehicle: other); 6 of 6 (dose: 50.0 mg/kg/injection, schedule: Q01DX009 (ip), vehicle: other); 5 of 6 (dose: 100.0 mg/kg/injection, schedule: Q01DX009 (ip), vehicle: other); 6 of 6 (dose: 200.0 mg/kg/injection, schedule: Q01DX009 (ip), vehicle: other); 5 of 6 (dose: 400.0 mg/kg/injection, schedule: Q01DX009 (ip), vehicle: other).

For `O=C1c2cccc3cc([N+](=O)[O-])cc(c23)C(=O)N1CCN1CCCC1`, under setting [2], the T/C is 132 % of control.

On to `CN(C)CC(C(=O)c1ccc(Br)cc1)C(Br)c1ccccc1` (configuration not stated), for which the survivor count reads like this: (dose: 35.0 mg/kg/injection, schedule: Q01DX009 (ip), vehicle: saline) 1 of 6; (dose: 95.0 mg/kg/injection, schedule: Q04DX003 (ip), vehicle: saline) 0 of 6; (dose: 145.0 mg/kg/injection, schedule: Q04DX003 (ip), vehicle: saline) 0 of 6; (dose: 215.0 mg/kg/injection, schedule: Q04DX003 (ip), vehicle: saline) 0 of 6.

For `CC(=O)OC1CC2(O)C(CCC3(C)C(c4ccc(=O)oc4)CCC32O)C2(C)CCC(OC3OC(CO)C(O)C(O)C3O)C=C12` (configuration not stated), the survivor count is on record as 6 of 6 (dose: 250.0 micrograms/kg/injection, schedule: Q01DX010 (ip), vehicle: saline) and 6 of 6 (dose: 500.0 micrograms/kg/injection, schedule: Q01DX010 (ip), vehicle: saline).

Turning to `O=C1C(=O)c2ccccc2-c2ccccc21`, the survivor count is reported as 2 of 6 (dose: 12.5 mg/kg/injection, schedule: Q01DX009 (ip), vehicle: carboxymethylcellulose (CMC)); 1 of 6 (dose: 25.0 mg/kg/injection, schedule: Q01DX009 (ip), vehicle: carboxymethylcellulose (CMC)); 4 of 6 (dose: 50.0 mg/kg/injection, schedule: Q01DX009 (ip), vehicle: carboxymethylcellulose (CMC)); 4 of 6 (dose: 100.0 mg/kg/injection, schedule: Q01DX009 (ip), vehicle: carboxymethylcellulose (CMC)).

For the compound `Cc1cc(N(CCCl)CCCl)ccc1C=Nc1ccc(F)cc1`, the T/C (dose: 264.0 mg/kg/injection, schedule: Q04DX003 (ip), vehicle: saline with Tween-80) was 141 % of control.

In the case of `CC(=O)Nc1c(Cl)c(Cl)c2c(c1Cl)C(=O)c1cc(Cl)ccc1-2`, the survivor count reads like this: under setting [3], 5 of 6; under setting [4], 6 of 6.

Turning to `CCC[CH2][Hg][Cl]`, the T/C is 125 % of control (dose: 5.0 mg/kg/injection, schedule: Q01DX009 (ip), vehicle: other); 135 % of control (dose: 10.0 mg/kg/injection, schedule: Q01DX009 (ip), vehicle: other); 142 % of control under setting [2]; 125 % of control (dose: 25.0 mg/kg/injection, schedule: Q04DX003 (ip), vehicle: saline sonified). Also, the survivor count (dose: 20.0 mg/kg/injection, schedule: Q01DX009 (ip), vehicle: other) is 6 of 6; the survivor count under setting [2] is 2 of 6; the survivor count (dose: 37.5 mg/kg/injection, schedule: Q01DX009 (ip), vehicle: saline with Tween-80) is given as 1 of 6; the survivor count under setting [5] was 1 of 6.

Turning to `CC(C)[C@]12O[C@H]1[C@@H]1O[C@]13[C@]1(O[C@H]1C[C@H]1C4=C(C(=O)OC4)[C@@H](O)C[C@@]13C)[C@@H]2O`, the T/C was 144 % of control (dose: 0.13 mg/kg/injection, schedule: Q01DX009 (ip), vehicle: saline + alcohol); 142 % of control [9 of 10 alive] (dose: 0.25 mg/kg/injection, schedule: Q01DX009 (ip), vehicle: saline + alcohol); 128 % of control (dose: 50.0 micrograms/kg/injection, schedule: Q01DX009 (ip), vehicle: saline). The survivor count runs as follows: (dose: 0.5 mg/kg/injection, schedule: Q01DX009 (ip), vehicle: saline + alcohol) 2 of 10; (dose: 1.0 mg/kg/injection, schedule: Q01DX009 (ip), vehicle: saline + alcohol) 0 of 10; (dose: 12.5 micrograms/kg/injection, schedule: Q01DX009 (ip), vehicle: saline + alcohol) 10 of 10; (dose: 25.0 micrograms/kg/injection, schedule: Q01DX009 (ip), vehicle: saline + alcohol) 8 of 10; (dose: 50.0 micrograms/kg/injection, schedule: Q01DX009 (ip), vehicle: saline + alcohol) 10 of 10; (dose: 200.0 micrograms/kg/injection, schedule: Q01DX009 (ip), vehicle: saline + alcohol) 10 of 10. Also, the survivor count (dose: 400.0 micrograms/kg/injection, schedule: Q01DX009 (ip), vehicle: saline + alcohol) was 8 of 10.

For the compound `O=C(NCCCl)Oc1c(Cl)cc(Cl)cc1Cl`, under “dose: 50.0 mg/kg/injection, schedule: Q01DX005 (ip), vehicle: Klucel (hydroxypropylcellulose) (HPC)”, the T/C is 136 % of control. Also, the survivor count (dose: 100.0 mg/kg/injection, schedule: Q01DX005 (ip), vehicle: Klucel (hydroxypropylcellulose) (HPC)) is 3 of 6 and the survivor count (dose: 200.0 mg/kg/injection, schedule: Q01DX005 (ip), vehicle: Klucel (hydroxypropylcellulose) (HPC)) is reported as 0 of 6.

For `Nc1nc2ncc(CNc3ccc(C(=O)NC(CCC(=O)O)C(=O)O)cn3)nc2c(=O)[nH]1` (configuration not stated), the survivor count under setting [5] is 6 of 6.

With `CCNC(C)(C)C(O)c1ccc(Cl)s1` (configuration not stated), the survivor count is reported as 3 of 6 under setting [3]; 1 of 6 (dose: 300.0 mg/kg/injection, schedule: Q01DX009 (ip), vehicle: saline with Tween-80); 2 of 6 (dose: 400.0 mg/kg/injection, schedule: Q04DX003 (ip), vehicle: saline with Tween-80).

Regarding `Cc1c(CCl)c(C)c(CCl)c(C)c1CCl`, the survivor count is given as 4 of 6 (dose: 200.0 mg/kg/injection, schedule: Q04DX003 (ip), vehicle: Klucel (hydroxypropylcellulose) (HPC)) and 6 of 6 (dose: 400.0 mg/kg/injection, schedule: Q04DX003 (ip), vehicle: Klucel (hydroxypropylcellulose) (HPC)).

For the compound `C[C@]12CCC(=O)C=C1CC[C@@H]1[C@@H]2[C@@H](O)C[C@@]2(C)[C@H]1CC[C@]2(C)O`, the survivor count by setting is: under setting [3], 4 of 6; under setting [4], 1 of 6.

Turning to `CC1(C)CCSC(/C=C/c2ccccc2)=N1`, under setting [1], the T/C is 126 % of control. Moreover, the survivor count (dose: 400.0 mg/kg/injection, schedule: Q01DX009 (ip), vehicle: Klucel (hydroxypropylcellulose) (HPC)) is listed as 0 of 6.

For the compound `O=C(O)CCCc1ccc(N(CCCl)CCCl)cc1`, the T/C was 140 % of control (dose: 1.0 mg/kg/injection, schedule: Q01DX009 (ip), vehicle: Klucel (hydroxypropylcellulose) (HPC)) and 127 % of control (dose: 6.25 mg/kg/injection, schedule: Q01DX010 (ip), vehicle: saline). Further, the survivor count is reported as 6 of 10 (dose: 4.0 mg/kg/injection, schedule: Q01DX009 (ip), vehicle: Klucel (hydroxypropylcellulose) (HPC)); 5 of 8 (dose: 24.0 mg/kg/injection, schedule: Q01DX009 (ip), vehicle: saline); 0 of 6 (dose: 25.0 mg/kg/injection, schedule: Q01DX010 (ip), vehicle: saline).

Turning to `O=C(/C=C/c1ccccc1)NC(CO)Cc1ccccc1` (configuration not stated), the survivor count under setting [5] is 5 of 6.

`COC12C(COC(N)=O)C3=C(C(=O)C(C)=C(N4CC4)C3=O)N1CC1NC12` (configuration not stated): the survivor count is, setting by setting: (dose: 0.14 mg/kg/injection, schedule: Q04DX003 (ip), vehicle: saline with Tween-80) 3 of 6; (dose: 1.1 mg/kg/injection, schedule: Q04DX003 (ip), vehicle: saline with Tween-80) 1 of 6; (dose: 1.7 mg/kg/injection, schedule: Q04DX003 (ip), vehicle: saline with Tween-80) 5 of 6; (dose: 2.5 mg/kg/injection, schedule: Q04DX003 (ip), vehicle: saline with Tween-80) 6 of 6.
